From paper PMC4744930 come the findings set out here.

In assay [1] the target is T1, VZV glycoprotein B (varicella-zoster virus, vaccine Oka strain (v-Oka)) (UniProt Q4JR05).
T1 sequence: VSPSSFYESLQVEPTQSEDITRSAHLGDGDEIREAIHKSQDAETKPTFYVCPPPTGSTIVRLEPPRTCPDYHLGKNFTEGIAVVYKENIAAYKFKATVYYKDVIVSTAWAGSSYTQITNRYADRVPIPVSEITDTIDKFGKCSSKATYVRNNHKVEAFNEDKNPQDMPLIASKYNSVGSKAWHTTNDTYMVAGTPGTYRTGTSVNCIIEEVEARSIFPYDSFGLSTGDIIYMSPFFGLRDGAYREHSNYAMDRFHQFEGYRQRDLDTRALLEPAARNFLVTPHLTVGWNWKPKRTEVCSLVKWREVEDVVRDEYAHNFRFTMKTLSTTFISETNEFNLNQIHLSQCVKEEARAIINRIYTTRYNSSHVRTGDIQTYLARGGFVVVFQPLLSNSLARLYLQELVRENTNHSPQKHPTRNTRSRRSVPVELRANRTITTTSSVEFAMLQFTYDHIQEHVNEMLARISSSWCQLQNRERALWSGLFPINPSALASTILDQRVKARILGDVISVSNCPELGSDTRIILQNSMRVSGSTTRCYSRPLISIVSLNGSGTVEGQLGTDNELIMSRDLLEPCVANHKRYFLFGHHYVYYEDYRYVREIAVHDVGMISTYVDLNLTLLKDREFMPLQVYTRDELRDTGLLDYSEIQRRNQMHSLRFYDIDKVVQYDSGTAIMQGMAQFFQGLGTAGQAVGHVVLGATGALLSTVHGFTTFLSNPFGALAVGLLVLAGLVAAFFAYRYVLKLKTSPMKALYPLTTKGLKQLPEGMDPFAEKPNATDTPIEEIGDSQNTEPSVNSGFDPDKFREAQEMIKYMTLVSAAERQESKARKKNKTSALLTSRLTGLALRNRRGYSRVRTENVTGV
The assay can be described thus: co-IP; v-Oka-infected ARPE-19 cells in 1% Triton X-100 lysis buffer, lysate precleared with protein A beads; incubated overnight with mAb and protein A beads at 4 °C; washed with PBST (0.05% Tween 20 in PBS); Western blot; uninfected cell lysate as control; ORF9 precipitated with mAb 8H6 and blotted for gE, gB, gC, and the reverse (gE, gB, gC precipitated with mAbs 4A2, 4C8, 2D1 and blotted with 8H6). (In general: Immunoblotting shows a protein as a band on a membrane.)

Assay [2] has as its target VZV ORF9, membrane-associated tegument protein (varicella-zoster virus, vaccine Oka strain (v-Oka)). The description is as above.

Results are given in words; binding and its absence hold for the method and conditions named. In cells and extracts the contact can be indirect. Binding can be weak; no strength is given.

Turning to “VZV ORF9, membrane-associated tegument protein”, the binding result in assay [1] is “binds”.

B1: VZV glycoprotein B (protein, UniProt Q4JR05 72-931)
chain: T1 sequence
In the case of B1, in assay [2], the binding result is “binds”.
